These are yes or no findings as the source states them, for the method shown. Some binding calls cover weakened binding; strength is not graded here.
Molecular target: T1, IL-10 receptor (UniProt Q13651)
T1 sequence (looked up): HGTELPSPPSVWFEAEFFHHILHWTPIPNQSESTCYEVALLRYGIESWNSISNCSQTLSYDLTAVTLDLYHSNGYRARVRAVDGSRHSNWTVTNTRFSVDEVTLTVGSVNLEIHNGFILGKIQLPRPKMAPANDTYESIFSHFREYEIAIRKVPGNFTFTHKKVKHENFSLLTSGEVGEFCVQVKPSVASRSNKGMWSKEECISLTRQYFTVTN
Experiment: SPR competition, IL-10 pre-incubated with IL-10 receptor abolishes its binding to the captured CA645/IL-10 fusion

The chains behind the UniProt entries cited, without tags or fusion partners. Residues count along the entry.
UniProt P22301, residues 19-178: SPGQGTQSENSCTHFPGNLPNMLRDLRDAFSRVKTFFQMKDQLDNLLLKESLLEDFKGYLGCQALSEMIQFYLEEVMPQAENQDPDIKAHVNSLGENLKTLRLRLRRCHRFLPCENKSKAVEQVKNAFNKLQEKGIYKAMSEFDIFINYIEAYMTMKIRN

With “IL-10, soluble competing ligand (from UniProt P22301 19-178)” the binding was “binds”.
